Assay results published in patent US10602680B2, “Method of internal seed disinfection by combining seed priming with vacuum infiltration” (priority 2014, dated 2020).

What was measured:
[1] = test system: triploid watermelon seeds; settings: in vivo
Method: Step 110 involves choosing which species of seed will be sought to be disinfected. […] Thus, in step 130, a phytotoxicty screening is carried out on the chosen seeds using the chosen treatment. […] For example, the inventors screened the antibiotic Oxytetracycline using the method of adding chemicals to the water used in matrix priming (Eastin, J. A., 2000, U.S. Pat. No. 6,076,301) and the method of the present invention. Water containing 500 ppm of Oxytetracycline was used to prime triploid watermelon seeds using matrix priming. Further, the same seed was treated with vacuum infiltration using 500 ppm Oxytetracycline solutions for 6 hours, which was followed by a matrix priming using water. For a control, seed of the same lot was treated using vacuum infiltration with water, followed by matrix priming using water. Also, untreated seeds were preserved as an additional control.

[2] = test system: Acidovorax avenae subsp. citrulli; assay: 10 minute soak of externally infected diploid watermelon seeds in antibiotic solutions; assay type: in vivo; settings: any dose (100 ppm, 250 ppm, 500 ppm)
Method: The effectiveness of using an antibiotic solution combined with matrix priming for disinfecting triploid watermelon seeds internally infected with Acidovorax avenae subsp. citrulli has been tested. In order to screen for effective antibiotics, diploid watermelon seeds were obtained which were externally infected with Acidovorax avenae subsp. citrulli. […] Infected seeds were soaked for 10 minutes in antibiotic solutions of 100 ppm, 250 ppm, and 500 ppm of the above antibiotics. Dosage was chosen based on information reported by Layne Wade (21st Annual Tomato Disease Workshop, Asheville, N.C., November 2006) which stated that the MIC (minimum inhibitory concentration) of Kasugamycin on Acidovorax avenae subsp. citrulli is greater than 100 ppm.

For `O=C(O)c1cn(C2CC2)c2cc(N3CCNCC3)c(F)cc2c1=O` [Ciprofloxacin], the phytotoxicity [1] was “phytotoxic” and the “elimination of bacteria on seeds” value [2] was “not effective”.
